These are yes or no findings as the source states them, for the method shown. Some binding calls cover weakened binding; strength is not graded here.
Molecular target: T1, Angiopoietin-2 (Ang2) (human, UniProt O15123 19-496, biotin label in Examples 22-24)
T1 construct: also called rhAng2; recombinant Ang2
T1 sequence (looked up): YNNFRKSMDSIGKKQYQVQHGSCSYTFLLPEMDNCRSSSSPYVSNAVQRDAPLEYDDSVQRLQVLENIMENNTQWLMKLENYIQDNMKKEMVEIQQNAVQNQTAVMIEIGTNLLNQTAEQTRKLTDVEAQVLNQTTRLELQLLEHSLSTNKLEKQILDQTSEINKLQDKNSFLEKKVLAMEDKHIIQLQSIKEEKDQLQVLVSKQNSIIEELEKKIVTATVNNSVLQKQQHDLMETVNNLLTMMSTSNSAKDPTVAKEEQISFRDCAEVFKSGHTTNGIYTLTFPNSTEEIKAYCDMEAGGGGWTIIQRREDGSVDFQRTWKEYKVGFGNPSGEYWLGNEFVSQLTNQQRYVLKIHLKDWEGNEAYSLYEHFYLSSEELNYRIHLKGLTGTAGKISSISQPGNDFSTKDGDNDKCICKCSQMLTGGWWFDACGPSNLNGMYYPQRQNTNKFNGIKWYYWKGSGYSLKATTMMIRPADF
Assay: Example 48, method not detailed

In the case of SLTTFIDCYFYPNPPHCY [ANG183], the binding is reported as “binds”.
